Measurements: patent US11785950B2, “Use of dried chicory root to protect poultry and livestock against ectoparasites or as insect repellant” (Cosucra Groupe Warcoing S.A., priority 2017, dated 2023)
Some entries share one result that the patent states for a list of compounds.

System: mites (Chorioptes bovis)
Experiment: Comparative trial vs Amitraz: mite count in skin scraping samples
Assay type: in vivo
Settings: week 4
Source text: Twenty Belgian Blue cattle (6 heifers and 14 cows) were used in this trial. Cattle with mild or severe visual signs of scabies infection were selected, tied, shaved, scored for scabies lesions (clinical index) and skin scraping samples were taken for counts of mites and lice. Next, the animals were divided into 2 groups, a control group and a treatment group, based on the results of the clinical index and mite—lice counts at the end of the pre-treatment phase. At the start of the treatment period, animals were housed in a tie-stable, shaved and tied to prevent physical contact with other animals.
Control group: The animals in the positive control group were treated according to the standard ILVO (Flecmish Institute for Agriculture and Fishery) scabies prevention protocol which consisted of treatment with Amitraz (Tactic) and removal of the crusts, followed by a second treatment with interval of 10 days between both treatments. After the second treatment crusts were not removed.
Treatment group: The animals in the treatment group were not treated with Amitraz (Tactic), but were fed the indicative daily dose of 200 g of dried chicory root composition per animal per day. […]
Using microscopy, the numbers of mites and lice in each sample were counted and the types of mites and lice were identified by an expert at the Laboratory of Parasitology, Ghent University, Belgium. […]

With `Cc1ccc(/N=C/N(C)/C=N/c2ccc(C)cc2C)c(C)c1` [Tactic, Amitraz] the “mite counts in positive WBT samples” value was at most 6.
